We go through one substance from publication PMC10015075.

Sequences of proteins named here, by UniProt entry; tags and fusion partners are left off.
UniProt Q9NRC8: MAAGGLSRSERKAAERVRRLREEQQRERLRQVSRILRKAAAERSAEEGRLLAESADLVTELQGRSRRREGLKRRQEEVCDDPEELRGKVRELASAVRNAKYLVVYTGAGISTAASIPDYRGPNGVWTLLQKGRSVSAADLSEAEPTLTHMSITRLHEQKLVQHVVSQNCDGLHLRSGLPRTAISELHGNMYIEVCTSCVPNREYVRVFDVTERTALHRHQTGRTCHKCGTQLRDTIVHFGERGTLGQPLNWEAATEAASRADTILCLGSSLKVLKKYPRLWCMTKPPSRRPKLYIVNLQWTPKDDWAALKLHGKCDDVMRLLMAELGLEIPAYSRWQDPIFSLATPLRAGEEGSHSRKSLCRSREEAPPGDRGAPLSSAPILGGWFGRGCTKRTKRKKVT
UniProt Q13485: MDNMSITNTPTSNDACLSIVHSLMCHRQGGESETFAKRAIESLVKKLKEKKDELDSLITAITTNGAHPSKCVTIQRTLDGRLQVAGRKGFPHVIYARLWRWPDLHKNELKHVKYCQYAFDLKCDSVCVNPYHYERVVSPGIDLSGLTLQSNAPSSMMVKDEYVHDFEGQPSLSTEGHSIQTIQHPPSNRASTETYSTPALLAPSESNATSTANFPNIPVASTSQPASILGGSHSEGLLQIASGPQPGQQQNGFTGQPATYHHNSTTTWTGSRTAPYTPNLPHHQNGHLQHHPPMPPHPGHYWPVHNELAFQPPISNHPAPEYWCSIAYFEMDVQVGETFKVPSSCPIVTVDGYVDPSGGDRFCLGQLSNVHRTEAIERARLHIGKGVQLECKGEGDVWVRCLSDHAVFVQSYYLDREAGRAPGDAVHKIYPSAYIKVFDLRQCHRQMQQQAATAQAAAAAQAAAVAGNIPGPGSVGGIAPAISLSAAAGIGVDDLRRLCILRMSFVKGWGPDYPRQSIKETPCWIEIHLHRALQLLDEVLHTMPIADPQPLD

This experiment concerns the target His-tagged SIRT7 (UniProt Q9NRC8). As to the kind of experiment: co-IP; A2058 cell lysate in ice-cold RIPA buffer with PMSF; primary antibody or control IgG 1 h at 4 °C, Protein A/G PLUS-Agarose overnight at 4 °C, washed 4 times with ice-cold PBS; immunoblot; His-tagged SIRT7 and endogenous SMAD4, cells with indicated treatment.

These are yes or no findings as the source states them, for the method shown. Binding seen in cells or lysates may run through a third protein. Some entries that bind do so weakly or less than the wild type.

As for “endogenous SMAD4 (from UniProt Q13485 1-552)”, the binding result is recorded as “binds”.
